Results published in article PMC3285688, “Active Site Mutations Change the Cleavage Specificity of Neprilysin” (PLoS ONE, 2012).
Numbering of substitutions follows the chain as printed. Names and notes keep the numbering of the source.

B1: NEP^F563L: neprilysin active site mutant, Phe563 to leucine (protein, UniProt P08473 2-750, looked up, variant F563L)
Neprilysin: GKSESQMDITDINTPKPKKKQRWTPLEISLSVLVLLLTIIAVTMIALYATYDDGICKSSDCIKSAARLIQNMDATTEPCTDFFKYACGGWLKRNVIPETSSRYGNFDILRDELEVVLKDVLQEPKTEDIVAVQKAKALYRSCINESAIDSRGGEPLLKLLPDIYGWPVATENWEQKYGASWTAEKAIAQLNSKYGKKVLINLFVGTDDKNSVNHVIHIDQPRLGLPSRDYYECTGIYKEACTAYVDFMISVARLIRQEERLPIDENQLALEMNKVMELEKEIANATAKPEDRNDPMLLYNKMTLAQIQNNFSLEINGKPFSWLNFTNEIMSTVNISITNEEDVVVYAPEYLTKLKPILTKYSARDLQNLMSWRFIMDLVSSLSRTYKESRNAFRKALYGTTSETATWRRCANYVNGNMENAVGRLYVEAAFAGESKHVVEDLIAQIREVFIQTLDDLTWMDAETKKRAEEKALAIKERIGYPDDIVSNDNKLNNEYLELNYKEDEYFENIIQNLKFSQSKQLKKLREKVDKDEWISGAAVVNAFYSSGRNQIVFPAGILQPPLFSAQQSNSLNYGGIGMVIGHEITHGFDDNGRNFNKDGDLVDWWTQQSASNFKEQSQCMVYQYGNFSWDLAGGQHLNGINTLGENIADNGGLGQAYRAYQNYIKKNGEEKLLPGLDLNHKQLFFLNFAQVWCGTYRPEYAVNSIKTDVHSPGNFRIIGTLQNSAEFSEAFHCRKNSYMNPEKKCRVW
B2: NEP^F563V: neprilysin active site mutant, Phe563 to valine (protein, UniProt P08473 2-750, looked up, variant F563V)
Neprilysin: B1 Neprilysin with L563V
B3: NEP^F563I: neprilysin active site mutant, Phe563 to isoleucine (protein, UniProt P08473 2-750, looked up, variant F563I)
Neprilysin: B1 Neprilysin with L563I
B4: NEP^F563M: neprilysin active site mutant, Phe563 to methionine (protein, UniProt P08473 2-750, looked up, variant F563M)
Neprilysin: B1 Neprilysin with L563M

Each molecule was assayed on HEK293 cells (assay: Expression of mutant NEP in transfected HEK293 cells). Conditions: individual mutant library members transfected in HEK293.

Molecule	Expression level in HEK293 cells (in words)
B1	expressed at levels near to that of wild-type NEP
B2	expressed at levels near to that of wild-type NEP
B3	expressed at levels near to that of wild-type NEP
B4	expressed at levels near to that of wild-type NEP
